# Test results published in the supplement of paper PMC8728848.
# This is one part of the list.
# B1: HA-61200 (Pseudomonas aeruginosa), Q02SP8_PSEAB (protein)
# chain: MNKCYALVWNVSQGCWNVVSEGSRRRGKPAGAKAAIASVLALLGATALAPAYALPSGGTVVGGSANGEIHLSGGNSLSVNQKVDKLIANWDSFSVAAGERVIFNQPSSSSIALNRVIGTKASDIQGRIDANGQVFLVNPNGVLFGRGAQVNVGGLVASTLDITDAEFNGNSSRYRFTGPSTNGVLNHGGAITAAEGGSIALLGAQVDNRGTVLAQMGGVGLGAGSDLTLNFDGNKLLDIRVDAGVANALASNGGLLKADGGRVLMAARTANALLNTVVNSQGAIEARSLRGKNGRIVLDG
# Experiments:
# Assay in all cases: glycan array binding signal (z-score within array); higher = stronger binding
# Settings in all cases: glycan notation: IUPAC condensed, linker removed
# Gal6S(b1-4)Glc = target: Gal6S(b1-4)Glc
# How it was run: (§1)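 Glycan array data were curated from 3228 arrays in the Consortium for Functional Glycomics database and kept only where the protein sequence was available. Glycan names were converted to IUPAC-condensed notation, and columns mapping to the same glycan were averaged. The binding signal is a within-array Z-score, averaged across arrays of the same protein sequence at different concentrations or buffers and across linkers. Negative Z-scores can be read as non-binding.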
# Gal6S(b1-4)Glc6S = target: Gal6S(b1-4)Glc6S
# How it was run: as §1
# Gal6S(b1-4)GlcNAc = target: Gal6S(b1-4)GlcNAc
# How it was run: as §1
# Gal6S(b1-4)GlcNAc6S = target: Gal6S(b1-4)GlcNAc6S
# How it was run: as §1
# GalNAc(a1-3)Gal = target: GalNAc(a1-3)Gal
# How it was run: as §1
# GalNAc(a1-3)GalNAc = target: GalNAc(a1-3)GalNAc
# How it was run: as §1
# [1] = target: GalNAc(a1-3)GalNAc(b1-3)Gal(a1-4)Gal(b1-4)Glc
# How it was run: as §1
# [2] = target: GalNAc(a1-3)GalNAc(b1-3)Gal(a1-4)Gal(b1-4)GlcNAc
# How it was run: as §1
# GalNAc(b1-3)Gal = target: GalNAc(b1-3)Gal
# How it was run: as §1
# [3] = target: GalNAc(b1-3)Gal(a1-4)Gal(b1-4)GlcNAc
# How it was run: as §1
# [4] = target: GalNAc(b1-3)Gal(a1-4)Gal(b1-4)GlcNAc(b1-3)Gal(b1-4)Glc
# How it was run: as §1
# [5] = target: GalNAc(b1-3)Gal(a1-6)Gal(b1-4)Glc
# How it was run: as §1
# GalNAc(b1-3)GalNAc = target: GalNAc(b1-3)GalNAc
# How it was run: as §1
# GalNAc(b1-3)GlcNAc = target: GalNAc(b1-3)GlcNAc
# How it was run: as §1
# GalNAc(b1-4)Gal(b1-4)Glc = target: GalNAc(b1-4)Gal(b1-4)Glc
# How it was run: as §1
# GalNAc(b1-4)GlcNAc = target: GalNAc(b1-4)GlcNAc
# How it was run: as §1
# [6] = target: GalNAc(b1-4)GlcNAc(b1-2)Man
# How it was run: as §1
# [7] = target: GalNAc(b1-4)GlcNAc(b1-2)Man(a1-3)[GalNAc(b1-4)GlcNAc(b1-2)Man(a1-6)]Man(b1-4)GlcNAc(b1-4)GlcNAc
# How it was run: as §1
# [8] = target: GalNAc(b1-4)GlcNAc(b1-3)GalNAc(b1-4)GlcNAc
# How it was run: as §1
# GalNAc(b1-4)GlcNAc6S = target: GalNAc(b1-4)GlcNAc6S
# How it was run: as §1
# GalNAc(b1-6)GalNAc = target: GalNAc(b1-6)GalNAc
# How it was run: as §1
# GalNAc3S(b1-4)GlcNAc = target: GalNAc3S(b1-4)GlcNAc
# How it was run: as §1
# GalNAc3S(b1-4)GlcNAc3S = target: GalNAc3S(b1-4)GlcNAc3S
# How it was run: as §1
# [9] = target: GalNAc3S(b1-4)[Fuc(a1-3)]GlcNAc
# How it was run: as §1
# GalNAc4S6S(b1-4)GlcNAc = target: GalNAc4S6S(b1-4)GlcNAc
# How it was run: as §1
# GalNAc6S(b1-4)GlcNAc = target: GalNAc6S(b1-4)GlcNAc
# How it was run: as §1
# Glc(a1-4)Glc = target: Glc(a1-4)Glc
# How it was run: as §1
# [10] = target: Glc(a1-4)Glc(a1-4)Glc(a1-4)Glc
# How it was run: as §1
# Glc(a1-6)Glc(a1-6)Glc = target: Glc(a1-6)Glc(a1-6)Glc
# How it was run: as §1
# [11] = target: Glc(a1-6)Glc(a1-6)Glc(a1-6)Glc
# How it was run: as §1
# Glc(b1-4)Glc = target: Glc(b1-4)Glc
# How it was run: as §1
# Glc(b1-6)Glc = target: Glc(b1-6)Glc
# How it was run: as §1
# GlcA(b1-3)Gal = target: GlcA(b1-3)Gal
# How it was run: as §1
# GlcA(b1-3)GlcNAc = target: GlcA(b1-3)GlcNAc
# How it was run: as §1
# GlcA(b1-6)Gal = target: GlcA(b1-6)Gal
# How it was run: as §1
# [12] = target: GlcA3S(b1-3)Gal(b1-4)GlcNAc(b1-2)Man
# How it was run: as §1
# [13] = target: GlcA3S(b1-3)Gal(b1-4)GlcNAc(b1-3)Gal(b1-4)Glc
# How it was run: as §1
# [14] = target: GlcNAc(a1-3)Gal(b1-4)GlcNAc
# How it was run: as §1
# [15] = target: GlcNAc(a1-4)Gal(b1-3)GlcNAc
# How it was run: as §1
# [16] = target: GlcNAc(a1-4)Gal(b1-4)GalNAc
# How it was run: as §1
# [17] = target: GlcNAc(a1-4)Gal(b1-4)GlcNAc
# How it was run: as §1
# [18] = target: GlcNAc(a1-4)Gal(b1-4)GlcNAc(b1-3)Gal(b1-4)Glc
# How it was run: as §1
# [19] = target: GlcNAc(a1-4)Gal(b1-4)GlcNAc(b1-3)Gal(b1-4)GlcNAc
# How it was run: as §1
# [20] = target: GlcNAc(a1-4)Gal(b1-4)GlcNAc(b1-3)Gal(b1-4)GlcNAc(b1-3)Gal(b1-4)GlcNAc
# How it was run: as §1
# [21] = target: GlcNAc(a1-4)Gal(b1-4)GlcNAc(b1-3)Gal(b1-4)[Fuc(a1-3)]GlcNAc(b1-3)Gal(b1-4)[Fuc(a1-3)]GlcNAc
# How it was run: as §1
binder,measurement,setting,value
B1,glycan array binding signal (z-score),Gal6S(b1-4)Glc,-0.001
same,glycan array binding signal (z-score),Gal6S(b1-4)Glc6S,-1.37
same,glycan array binding signal (z-score),Gal6S(b1-4)GlcNAc,0.328
same,glycan array binding signal (z-score),Gal6S(b1-4)GlcNAc6S,-0.661
same,glycan array binding signal (z-score),GalNAc(a1-3)Gal,-0.485
same,glycan array binding signal (z-score),GalNAc(a1-3)GalNAc,0.174
same,glycan array binding signal (z-score),[1],0.612
same,glycan array binding signal (z-score),[2],-0.259
same,glycan array binding signal (z-score),GalNAc(b1-3)Gal,0.635
same,glycan array binding signal (z-score),[3],0.021
same,glycan array binding signal (z-score),[4],0.599
same,glycan array binding signal (z-score),[5],-0.559
same,glycan array binding signal (z-score),GalNAc(b1-3)GalNAc,-0.83
same,glycan array binding signal (z-score),GalNAc(b1-3)GlcNAc,-0.596
same,glycan array binding signal (z-score),GalNAc(b1-4)Gal(b1-4)Glc,-0.358
same,glycan array binding signal (z-score),GalNAc(b1-4)GlcNAc,0.059
same,glycan array binding signal (z-score),[6],0.747
same,glycan array binding signal (z-score),[7],1
same,glycan array binding signal (z-score),[8],0.103
same,glycan array binding signal (z-score),GalNAc(b1-4)GlcNAc6S,0.535
same,glycan array binding signal (z-score),GalNAc(b1-6)GalNAc,0.071
same,glycan array binding signal (z-score),GalNAc3S(b1-4)GlcNAc,-0.608
same,glycan array binding signal (z-score),GalNAc3S(b1-4)GlcNAc3S,-0.53
same,glycan array binding signal (z-score),[9],-0.736
same,glycan array binding signal (z-score),GalNAc4S6S(b1-4)GlcNAc,-0.044
same,glycan array binding signal (z-score),GalNAc6S(b1-4)GlcNAc,-0.145
same,glycan array binding signal (z-score),Glc(a1-4)Glc,0.046
same,glycan array binding signal (z-score),[10],-0.354
same,glycan array binding signal (z-score),Glc(a1-6)Glc(a1-6)Glc,-0.164
same,glycan array binding signal (z-score),[11],-0.738
same,glycan array binding signal (z-score),Glc(b1-4)Glc,-0.505
same,glycan array binding signal (z-score),Glc(b1-6)Glc,-0.682
same,glycan array binding signal (z-score),GlcA(b1-3)Gal,-0.781
same,glycan array binding signal (z-score),GlcA(b1-3)GlcNAc,-0.297
same,glycan array binding signal (z-score),GlcA(b1-6)Gal,0.41
same,glycan array binding signal (z-score),[12],-0.103
same,glycan array binding signal (z-score),[13],-1.04
same,glycan array binding signal (z-score),[14],-1.02
same,glycan array binding signal (z-score),[15],-0.514
same,glycan array binding signal (z-score),[16],0.631
same,glycan array binding signal (z-score),[17],-0.006
same,glycan array binding signal (z-score),[18],-1.35
same,glycan array binding signal (z-score),[19],-0.622
same,glycan array binding signal (z-score),[20],0.386
same,glycan array binding signal (z-score),[21],-0.389

# 2 entries from above, with bars between the fields:
binder | measurement | setting | value
B1 | glycan array binding signal (z-score) | [10] | -0.354
same | glycan array binding signal (z-score) | Glc(a1-6)Glc(a1-6)Glc | -0.164
